Measurements from “University of Dundee, Small-Polar-MMV Screening Library” (2021), ChEMBL document CHEMBL3988442.

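Viability assay of Plasmodium falciparum sporozoites; the read-out is not stated. The concentration is filed as 10 mM, unlikely as a test dose, so the dose is not known. Direction is inferred from retests: higher values go with lower viability. Strong results were mostly tested again. Of about 34,000 compounds tested this way, about 280 (0.84%) reached 50% or more in at least one test.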

Values are the deposited “Percent Effect”, in %.
The controls that fix the scale are not given in the record; negative values are as filed.
Compounds were drawn at random from those tested, without regard to their results.
Two or more numbers in one place are separate tests of the same structure; such repeats can differ widely.

| structure | Percent Effect |
|---|---|
| `CC1CN(Cc2ccc(-n3cccn3)cc2)CCO1` (stereo unspecified) | 0.3615% |
| `Cc1occc1C(=O)N1CCC2(CCC(C(=O)NCC3CC3)O2)CC1` (stereo unspecified) | -0.2387% |
| `CN(C)C1CCN(C(=O)c2ccnn2-c2ccc3ccccn23)CC1.O=C(O)C(F)(F)F` | -4.943% |
| `CCn1c(SC)nnc1C1CCN(C(=O)N2CCCC2)CC1` | -8.028% |
| `c1coc(-c2nnc(CN3CCCC3Cn3cncn3)o2)c1` (stereo unspecified) | -6.444% |
| `Cc1cc(C)c2c(c1)C1(CC(=O)Nc3c1cnn3C(C)C)C(=O)N2` (stereo unspecified) | 5.482% |
| `O=C(O)C(F)(F)F.O=C(O)C(F)(F)F.c1cncc(COCc2nnc3n2CCN(Cc2ccoc2)C3)c1` | -2.835% |
| `Cc1cc(C2CCCN2C(=O)c2cc3c(s2)CCC3)no1` (stereo unspecified) | -16.3% & -5.428% & 5.026% |
| `Cc1oncc1C(=O)N1CCOCC2(CCN(c3ccccn3)C2)C1.O=C(O)C(F)(F)F` (stereo unspecified) | -8.205% |
| `CNc1cncc(C2CCCN2S(=O)(=O)c2ccccc2)n1` (stereo unspecified) | 12.02% |
| `CCn1ccnc1CN1CCN(c2cc(C)nc(C3CCCN3)c2)CC1.Cl` (stereo unspecified) | -3.363% |
| `Cc1c[nH]c(C2CCCN2C(=O)CCc2c(C)n[nH]c2C)n1` (stereo unspecified) | 0.9712% |
| `[H][C@]12CCN(C(=O)CC(C)(C)C)CC[C@@]1([H])S(=O)(=O)CCN2S(C)(=O)=O` | -9.696% |
| `CCCn1ccnc1CN1CCC(Oc2ccc(Cl)cc2)(C(=O)O)CC1` | -8.473% |
| `CN1CC(=O)N(c2ccccc2)CC12CCN(C(=O)CC1CC1)C2.O=C(O)C(F)(F)F` (stereo unspecified) | -24.13% |
| `Cc1ccc2ncn(C(C)Cn3cccn3)c(=O)c2c1` (stereo unspecified) | -33.08% |
| `CC(=O)N(Cc1noc(C2CC2)n1)C1CCN(Cc2ccccn2)C1` (stereo unspecified) | 1.692% |
| `NC(=O)c1csc(C(=O)N2CCCC(n3ccnc3)C2)c1` (stereo unspecified) | -9.069% |
| `CCOCC1CN(Cc2ccsc2)Cc2cnn(C)c21` (stereo unspecified) | 7.281% |
| `Cc1cc(C(=O)N2CCCCC2C)ccc1NCCCO` (stereo unspecified) | -9.812% |
| `O=C(CCc1cscn1)N1CCCC(n2ccnc2)C1` (stereo unspecified) | -10.5% |
| `CCCSc1ncccc1C(=O)NCc1ccc(S(N)(=O)=O)cc1` | -8.333% |
| `CCN1CCCC(O)(CNCc2ccccn2)C1` (stereo unspecified) | 3.264% |
| `O=C(NCCN1CCCCC1)c1nc(-c2ccc3cc[nH]c3c2)no1` | -1.316% |
| `COc1ccc(S(=O)(=O)N2CCN(C)c3ncccc3C2)cc1.O=C(O)C(F)(F)F` | 6.245% |
| `O=C(CN1C(=O)CCCc2sccc21)NC1CCc2nccn2C1` (stereo unspecified) | -4.55% |
| `O=C(CNc1cc(F)ccc1OCC1CCCO1)N1CCOCC1` (stereo unspecified) | -1.807% |
| `Cn1nc(C(=O)NCc2ccccn2)c2c1CCS(=O)(=O)C2` | -10.83% & -20.74% & 3.289% |
| `CCN1CC(C(=O)NCCOc2ccc3c(c2)OCO3)CC1=O` (stereo unspecified) | -4.938% |
| `COc1ccnc(N2CCN(C(=O)Cc3csc(C)n3)CC2)n1` | 0.03401% |
| `CC(C)N(C)Cc1nnc2n1CCCN(c1cnccn1)C2` | 10.4% |
| `O=C(O)C(F)(F)F.[H][C@@]12CCCO[C@]1([H])[C@H](OCc1cccnc1)CN2S(=O)(=O)CC` | -4.81% |
| `CC(C)C(=O)N1CCC2(CCCN(CCOc3ccccc3)C2)C1` (stereo unspecified) | -0.5796% |
| `Cc1nn(C)cc1S(=O)(=O)N[C@@H]1CC[C@@H](n2ccnc2C)[C@@H]1O` | 13.32% |
| `CCc1cn[nH]c1C1CCN(c2cc(C)c3ccc(OC)cc3n2)CC1` | 14.91% |
| `CCN(CC)C(C(=O)Nc1ccc2c(c1)CCC(=O)N2)c1ccccc1` (stereo unspecified) | -1.669% |
| `COc1ccccc1C(=O)N1CCN(C(=O)Cc2ccccn2)CC1` | -18.55% & -11.38% & 48.25% |
| `O=C(O)C(F)(F)F.[H][C@]12CCC[C@@]1(COCc1ccccn1)CN(C(=O)CS(C)(=O)=O)C2` | 1.829% |
| `COCCc1noc(-c2ccc(N[C@H]3CCCCNC3=O)nc2)n1` | -5.805% |
| `CC(C)(C)c1n[nH]cc1CNC1CCC(OCC(F)(F)F)CC1.Cl` (stereo unspecified) | -1.791% |
| `COC(C)(C)CC(C)NCc1cc(-c2ccco2)on1` (stereo unspecified) | -7.846% |
| `Cc1cc(C(=O)NCC(=O)N2CCOCC2)nn1C(C)(C)C` | 2.686% |
| `CCc1c(C(=O)N2CC(C)OC(C)(C)C2)cnn1-c1ccccn1` (stereo unspecified) | 5.148% |
| `[H][C@@]12CN(c3ncccc3Cl)C[C@]1(C(=O)O)CN(CC1CC1)C2=O` | -8.462% |
| `CC(C)N1CCCC2(CCN(C(=O)CCCn3ccnc3)C2)C1=O` (stereo unspecified) | -1.767% |
| `CS(=O)(=O)N1CCN(c2ccc3ccc(C(=O)NC4CC4)cn23)CC1` | 6.217% |
| `COC(=O)c1cccn1C1CCN(CC(=O)NC2CCCCC2)CC1` | 0.1778% |
| `CCNC(=O)c1nc2c(s1)CCCN2S(C)(=O)=O` | 19.81% |
| `CN(C)C(=O)CN1CCN(C(=O)Cc2csc(-c3ncccn3)n2)CC1` | 2.638% |
| `CC(C)C(NC(=O)NCC1(CO)CC1)c1nnc2n1CCC2` (stereo unspecified) | 0% |
| `O=C(CCN1CCc2ccccc21)N1CC(C(=O)N2CCOCC2)C1` | 14.3% |
| `Cc1nc(-c2nnc[nH]2)sc1C(=O)N1CCCC1CC(C)(C)C` (stereo unspecified) | -6.842% |
| `CNC(=O)CN1CCOC(c2ccccc2C(F)(F)F)C1` (stereo unspecified) | -9.6% |
| `CC(NC(=O)NCc1cc(Br)cs1)c1ccccn1` (stereo unspecified) | 8.17% |
| `Cc1cc(S(=O)(=O)N2CCOCC2C#N)ccc1F` (stereo unspecified) | 9.55% |
| `COCCN1CCC(CNC(=O)C2(C#N)CCCCC2)CC1` | -4.783% |
| `COCc1nc(C(=O)N2CCCC(n3ccnc3)C2)cs1` (stereo unspecified) | -1.602% |
| `Cc1cnn(CCC(=O)N2CCOC(c3nc(C(C)(C)C)n[nH]3)C2)c1` (stereo unspecified) | -5.823% |
| `CC(=O)NCC(=O)N1CCOC2(CCCN(c3ccc(C)nn3)C2)C1` (stereo unspecified) | -6.318% |
| `CN1CC(c2ccccc2)CC12CCN(C(=O)c1ccc(Cl)cc1)CC2` (stereo unspecified) | -17.09% |
| `CCS(=O)(=O)N1Cc2nccn2CC(Cn2cncn2)C1` (stereo unspecified) | -3.986% |
| `NS(=O)(=O)CCNC(=O)C1(c2ccc(Br)cc2)CC1` | 7.852% |
| `CC(NC(=O)CCOc1ccc(F)cc1)c1nnc2n1CCCCC2` (stereo unspecified) | 7.534% |
| `c1csc(-c2noc(CCCN3CCCC3Cn3cccn3)n2)c1` (stereo unspecified) | 11.74% & 51.52% & 49.69% |
| `CC(=O)N1N=C(c2ccccc2)OC1C(=O)NCCc1cccc(Cl)c1` (stereo unspecified) | 2.591% |
| `[H][C@]12CC[C@]([H])(CN(C(=O)Cc3nonc3C)C1)N(Cc1ccccc1)C2=O` | 1.059% |
| `COc1cccc(COCC(=O)N2CCC(CC(N)=O)CC2)c1` | -0.9893% |
| `Cc1c(F)cc(C(=O)O)cc1S(=O)(=O)Nc1cccc(C(F)F)c1` | 1.127% |
| `CCn1nc(C)c(S(=O)(=O)N(C)c2ccc(Cl)cn2)c1C` | 3.781% |
| `[H][C@@]12CCN(C(=O)c3ccsc3)[C@]1([H])CCC(=O)N2CC1CC1` | -8% |
| `Cc1noc(C)c1CNC(=O)NCCOc1ccc(F)cc1F` | -2.957% |
| `CCc1nc(C2CCCN2Cc2nc(C3CC3)no2)no1` (stereo unspecified) | -9.16% |
| `CCS(=O)(=O)NCC(=O)NC1(C)CCc2ccccc2C1` (stereo unspecified) | -3.374% |
| `CC(Cn1ccnc1)NC(=O)NCCc1ccc2c(c1)OCCO2` (stereo unspecified) | -11.13% & -0.6541% & -9.369% |
| `CN(Cc1nnc2n1CCC2)C(=O)Cc1ccc2c(c1)OCCO2` | 5.76% |
| `CCn1cc(Br)c(C(=O)NCc2cccnc2)n1` | -0.4362% |
| `CC(=O)NCCNC(=O)Nc1cc(C(C)(C)C)sc1C#N` | 2.807% |
| `Cc1nc(C(=O)N2CCN(S(C)(=O)=O)CC2)c(-c2ccccc2Cl)s1` | -5.359% |
| `Cc1ccc2cc(C(=O)N3CCCC3Cn3cccn3)[nH]c2c1` (stereo unspecified) | 20.55% |

Some entries from above, unchanged:

- Cc1c[nH]c(C2CCCN2C(=O)CCc2c(C)n[nH]c2C)n1 (stereo unspecified) : 0.9712%
- O=C(CCN1CCc2ccccc21)N1CC(C(=O)N2CCOCC2)C1 : 14.3%
- CN1CC(c2ccccc2)CC12CCN(C(=O)c1ccc(Cl)cc1)CC2 (stereo unspecified) : -17.09%
- Cc1nc(-c2nnc[nH]2)sc1C(=O)N1CCCC1CC(C)(C)C (stereo unspecified) : -6.842%